According to PubChem BioAssay AID2685 (National Center for Advancing Translational Sciences (NCATS), 2010):
Hit rate of the full screen: of about 320,000 compounds, about 2,100 (0.66%) were called active. The inconclusive results got no clear call from the source; some entries with a clear call stand among them for comparison. The call rests on the fitted dose curve; in most records, active means well fitted inhibition curve with a large enough effect in the signal ratio, with a control signal flat (not every such curve was filed as active); inconclusive means small, poorly fitted or top-dose-only effect, or effect the other way, or a change in a side signal; inactive means flat fitted curve, though single readings scatter; the % refers to the signal ratio. Potencies beside an inconclusive call are fits to weak or partial responses and may not hold up.

Test: qHTS Assay for Lipid Storage Modulators in Drosophila S3 Cells
Settings: BODIPY lipid droplet fluorescence, 18-24 h, cells fed with added oleic acid; lipid storage change, negative = inhibition: at 46.1 µM (top of the series) unless noted
Outline: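 Drosophila S3 cells loaded with oleic acid (400 uM, as added) and compounds at several concentrations; lipid droplets imaged by 488-nm laser-scanning cytometry, 500–530 nm intensity and object ratio to cell channel. Percent activity normalized to 20 uM Triacsin C.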
On the % scale 0 is the no-effect control and ±100 the full control effect; potency means the concentration at half of the fitted maximal effect.

Lipid storage change, negative = inhibition, inconclusive:
COc1cc(OC)cc(C(=O)NNC(=O)CN2C(=O)NC(C)(c3ccccc3)C2=O)c1 (stereo not drawn) 68.1%
OCCN(Cc1ccccc1)CC(O)COc1ccc(-c2ccccc2)cc1 (stereo not drawn) -86.1%
COc1ccc(C2=NN(C(=O)c3ccc(Cl)c([N+](=O)[O-])c3)C(c3ccccc3)C2)cc1 (stereo not drawn) -0.753%
COc1cc(OC)cc(C(=O)NNC(=O)CN2C(=O)NC(C)(c3ccc(C)cc3)C2=O)c1 (stereo not drawn) 27.7%
O=C(NCCOCCNC(=O)OCc1ccccc1)OCc1ccccc1 11.2%
O=C(NCCCn1ccnc1)C1CC(c2ccccc2Cl)=NO1 (stereo not drawn) 21.7%
CCOC(=O)C(CC)n1cnc2c(nnn2-c2cccc(OC)c2)c1=O (stereo not drawn) -31.7%
CCCC(=O)Nc1cc(S(=O)(=O)N2CCCCC2)ccc1N1CCOCC1 -1.23%
COc1ccc(-c2csc(-c3ccc(C(=O)O)cc3)n2)cc1 14%
O=C(NCCCN1CCOCC1)NC12CC3CC(CC(C3)C1)C2 0.617%
Cc1c(Nc2nc(-c3cccc([N+](=O)[O-])c3)cs2)c(=O)n(-c2ccccc2)n1C 20.3%
COc1ccc(C#Cc2ccc3c(=O)c4ccccc4n(C)c3c2)cc1 -20%
O=[N+]([O-])c1ccc(S(=O)(=O)NCC(c2ccco2)N2CCc3ccccc3C2)cc1 (stereo not drawn) 19.6%
O=C(CCc1nc(-c2ccccc2F)no1)NCCc1ccccc1Cl 21.4%
CC(C)NC(=O)c1ccccc1N(Cc1ccccc1)S(C)(=O)=O -25.1%
CCCN(CC(=O)Nc1ccccc1C)C(=O)c1ccc(-c2ccc(C(C)=O)cc2)o1 50.2%
O=[N+]([O-])c1ccc(CN2CCN(c3ccc(F)cc3)CC2)o1 16.2%
CC1(C)C2CCC1(C)C(NC(=O)CCN1CCCCC1)C2 (stereo not drawn) 5.26%
CCC(C)C(NC(=O)C1CCC(C)CC1)C(=O)NCCc1ccc(S(N)(=O)=O)cc1 (stereo not drawn) 13.6%
C/C(=N\N1CCN(c2ccc(Cl)cc2)CC1)c1cccc([N+](=O)[O-])c1 -44.2% [at 0.00295 µM]
NS(=O)(=O)c1ccc(CCNC(=O)c2cnc(Cl)c(Cl)c2)cc1 49.3%
O=C(COc1ccc(-c2ccccc2)cc1)N1CCN(C(=O)c2cccs2)CC1 -33.7%
CCCOc1ccc(C(=O)NNC(=O)c2cccc(S(=O)(=O)N3CCN(C(C)=O)CC3)c2)cc1OC
Oc1ccc(C[C@@H]2CNC(=S)N2CCCCC2CCCCC2)cc1 -10.6%
Cc1occc1C(=O)N1CCN(c2ccc([N+](=O)[O-])cc2)CC1 50.3%
Cc1ccc(-c2nn(-c3ccccc3)cc2CNCc2ccccc2)cc1 -82%
O=C(CSc1nnc2ccc(-c3ccc(Br)cc3)nn12)NCC1CCCO1 (stereo not drawn) -5.16%
CCOC(=O)c1c(C)[nH]c(C(=O)COC(=O)CCC2CCCC2)c1C -117%
Cc1cccc(-n2nc(CC#N)c(C#N)c2N)c1 12.2%
Cc1cnc(C(=O)OCC(=O)c2ccc(C)s2)cn1 16.9%
COC(=O)c1ccccc1NC(=O)CSc1nnc(-c2cccnc2)n1N 11.9%
CC(=O)Nc1nc(=S)ss1 -31.3%
O=C(Nc1ccc(F)cc1F)c1cc2ncc(Br)cn2n1 -3.64%
COc1ccc(/C(N)=N/OC(=O)CN(C)S(=O)(=O)c2ccccc2)cc1 14.4%
C=CCNc1nc(NCC)nc(N2CCOCC2)n1 -9.94%
CC(C)(C)[C@H]1C=C(C(N)=O)O[C@@H](OCc2ccc(CO)cc2)C1 -14.3%
CCOc1cc(NC(=O)c2ccco2)c(OCC)cc1NC(=O)c1ccco1 142%
O=C(COC(=O)c1ccc(S(=O)(=O)N2CCc3ccccc3C2)cc1)NC1CCS(=O)(=O)C1 (stereo not drawn) 20.4%
O=C(c1ccc2c(c1)OCCO2)C1CCN(S(=O)(=O)c2cccc(F)c2)CC1 -36.7%
CC(=O)c1sc(NC(=O)c2ccc(COc3ccccc3Cl)o2)nc1C 9.12%
Cn1cnc2cc(NC(=O)COc3ccccc3)ccc21 2.38%
COc1ccc(NC(=O)c2cccc(F)c2)cc1Cl -0.181%
Cn1c(NC(=O)c2ccc(F)cc2)nc2ccccc21 -22.3%
COc1ccc(S(=O)(=O)N2CCOCC2)cc1NC(=O)CCc1cc(OC)c(OC)c(OC)c1 27.6%
CCn1cc(S(=O)(=O)N2CCN(c3ccc(Cl)cc3)CC2)cn1 13.2%
CCC1(C)NC(=O)N(CC(=O)Nc2sc3c(c2C(N)=O)CCC3)C1=O (stereo not drawn) 24.6%
Cc1ccnc(NS(=O)(=O)c2ccc(N=CC3=C(O)CC(C)(C)CC3=O)cc2)n1 -30.7%
CCOC(=O)N1CCC(N2CCN(S(=O)(=O)c3ccc(OC)cc3)CC2)CC1 -16.8%
CN(C)CCCN(C(=O)c1ccc(S(=O)(=O)N2CCc3ccccc3C2)cc1)c1nc2c(F)cccc2s1 26.5%
Cc1nnc(NC(=O)C2=COCCO2)s1 -4.5%
CCN(CC)CCNC(=O)c1ccc(NC2=NC3CS(=O)(=O)CC3S2)cc1 (stereo not drawn) -5.16%

Looked up one by one from above:
Lipid storage change, negative = inhibition, inconclusive:
O=[N+]([O-])c1ccc(S(=O)(=O)NCC(c2ccco2)N2CCc3ccccc3C2)cc1 (stereo not drawn) 19.6%
Cc1ccnc(NS(=O)(=O)c2ccc(N=CC3=C(O)CC(C)(C)CC3=O)cc2)n1 -30.7%
CC(=O)c1sc(NC(=O)c2ccc(COc3ccccc3Cl)o2)nc1C 9.12%

Of the compounds above, these have bromine.
Lipid storage change, negative = inhibition, inconclusive:
O=C(CSc1nnc2ccc(-c3ccc(Br)cc3)nn12)NCC1CCCO1 (stereo not drawn) -5.16%
O=C(Nc1ccc(F)cc1F)c1cc2ncc(Br)cn2n1 -3.64%

Next part:

Lipid storage change, negative = inhibition, inactive:
Cn1nccc1C(=O)NC1CC(C)(C)Cc2c1cnn2-c1ccc(F)cc1 (stereo not drawn)
COc1ccc(C(=O)Nc2ccc(S(=O)(=O)N3CCCC3)cc2)c(OC)c1

Potency, active:
CCCN(CC1CC1)C(=O)COC(=O)c1oc2c(F)cccc2c1C 1.64 µM
COC(=O)c1ccc2c(c1)C(C)(C)C(/C=C/c1ccc(O)cc1)=[N+]2C 5.17 µM
NC(=O)c1c(NC(=O)c2ccc(F)cc2)sc2c1CCC2 4.61 µM
CCCCNC(=O)C1CCN(S(=O)(=O)c2cnc[nH]2)CC1 18.4 µM

Potency, inconclusive:
Cc1ccc(-n2nc3c(c2NC(=O)c2ccc4c(c2)OCO4)CS(=O)(=O)C3)cc1 1.84 µM [falling, full curve]
COc1ccc(-n2c(=S)[nH]c3cc(C(=O)NCc4cccnc4)ccc3c2=O)c(OC)c1 0.92 µM [activator, full curve]
CCN(CC)CC(=O)N(CC(=O)Nc1c(C)cc(C)cc1C)C1CCCCC1 1.84 µM [activator, full curve]
CCS(=O)(=O)Nc1ccc2c(c1)OCO2 0.0052 µM [falling, full curve, poor fit]
Cc1sc(NC(=O)CSc2nc(N)cc(N)n2)c(C#N)c1C 0.366 µM [activator, full curve, poor fit]
COc1ccc(NC(=O)CN2CCN(C(=O)C3CCCO3)CC2)c(OC)c1 (stereo not drawn) 1.84 µM [activator, partial curve]
Cc1cccn2c(=O)c(/C=N/O)c(Nc3ccccc3F)nc12 5.17 µM [activator, full curve]
O=C(Nc1cc(Cl)ccc1N1CCOCC1)c1cc2ccccc2o1 29.1 µM [activator, single point]
COc1ccc(CNC(=O)COC(=O)c2c[nH]c(=O)[nH]c2=O)cc1OC 23.1 µM [activator, single point]
O=C(C[n+]1ccc(Cc2ccccc2)cc1)Nc1ccccc1 3.66 µM [falling, full curve, poor fit]
CCCCNC(=S)Nc1ccc(OC)nc1 0.651 µM [falling, full curve, poor fit]
CCOc1ccc(OCCCCN(C)C)cc1 7.31 µM [falling, full curve, poor fit]
CCCCCN(C(=O)NC(=O)Nc1cccc(C)c1C)S(C)(=O)=O 2.31 µM [activator, partial curve]
CC1(C)Cc2c(sc(NC(=O)c3ccco3)c2C#N)C(C)(C)N1 20.6 µM [falling, single point]
CCCNc1nc(Nc2ccc(C)cc2)nc(N2CCCC2)n1 29.1 µM [rising, single point]
Cc1cc(C)cc(NC(=O)OCCN2CCN(Cc3ccccc3)CCC2=O)c1 11.6 µM [activator, partial curve, poor fit]
OC(Cn1cncn1)(c1ccccc1)c1ccccc1 1.16 µM [activator, partial curve, poor fit]
COc1cccc(NC(=O)CC2S/C(=N\S(=O)(=O)c3ccccc3)N(c3ccccc3)C2=O)c1 (stereo not drawn) 7.31 µM [activator, partial curve, poor fit]
Cc1nc([N+](=O)[O-])cn1CCCCN1C(=O)c2ccccc2C1=O 29.1 µM [activator, single point]
O=C(NO)c1cc(OCC(F)(F)F)ccc1OCC(F)(F)F 0.0046 µM [activator, full curve, poor fit]
Cc1noc(C)c1CSc1nnc2ccc3ccccc3n12 2.59 µM [activator, single point]
